In paper PMC11622160 one finds binding data, which are given here for 1 molecule.

Chains of the proteins cited; added tags and fusions are not shown.
UniProt Q9H1Y0: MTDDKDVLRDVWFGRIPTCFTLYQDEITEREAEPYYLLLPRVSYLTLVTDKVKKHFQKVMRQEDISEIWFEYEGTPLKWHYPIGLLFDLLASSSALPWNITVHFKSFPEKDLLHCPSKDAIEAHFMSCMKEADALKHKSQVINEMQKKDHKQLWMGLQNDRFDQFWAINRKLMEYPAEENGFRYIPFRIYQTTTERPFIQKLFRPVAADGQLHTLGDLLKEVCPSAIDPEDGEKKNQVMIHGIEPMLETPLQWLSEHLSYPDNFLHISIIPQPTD

In the test the target is autophagy-related protein 5 (Atg5) (human (endogenous in HCE-2)) (UniProt Q9H1Y0). The test can be described thus: co-IP; HCEC lysate (cells in normal or hyperosmotic medium for six hours) incubated overnight at 4°C with Atg5 antibody (1:100), Perilipin3 antibody (1:100) or control IgG; rProtein A/G beads; immunoprecipitates analysed by Western blot. In general terms: In western blotting, separated proteins are transferred to a membrane and probed.

No constants are given. Whether binding was seen depends on the method and setting. Binding seen in cells or lysates may run through a third protein. Some binding calls cover weakened binding; strength is not graded here.

B1: Perilipin3 (protein, UniProt O60664 1-434)
chain: MSADGAEADGSTQVTVEEPVQQPSVVDRVASMPLISSTCDMVSAAYASTKESYPHIKTVCDAAEKGVRTLTAAAVSGAQPILSKLEPQIASASEYAHRGLDKLEENLPILQQPTEKVLADTKELVSSKVSGAQEMVSSAKDTVATQLSEAVDATRGAVQSGVDKTKSVVTGGVQSVMGSRLGQMVLSGVDTVLGKSEEWADNHLPLTDAELARIATSLDGFDVASVQQQRQEQSYFVRLGSLSERLRQHAYEHSLGKLRATKQRAQEALLQLSQVLSLMETVKQGVDQKLVEGQEKLHQMWLSWNQKQLQGPEKEPPKPEQVESRALTMFRDIAQQLQATCTSLGSSIQGLPTNVKDQVQQARRQVEDLQATFSSIHSFQDLSSSILAQSRERVASAREALDHMVEYVAQNTPVTWLVGPFAPGITEKAPEEKK
As to B1, the binding result is on record as “binds”.
